Tags and fusion partners may be left off the protein sequences shown.
Molecular target: T1, Cap0037 (Clostridium acetobutylicum ATCC 824) (UniProt Q97TR1)
T1 sequence (looked up): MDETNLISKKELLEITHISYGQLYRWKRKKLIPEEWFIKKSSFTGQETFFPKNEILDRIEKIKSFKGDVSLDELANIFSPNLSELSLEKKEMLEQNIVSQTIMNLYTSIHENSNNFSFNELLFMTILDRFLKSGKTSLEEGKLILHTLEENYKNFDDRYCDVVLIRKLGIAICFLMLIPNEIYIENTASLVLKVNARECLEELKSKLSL
Test: EMSA
Conditions: poly(dI-dC), EMSA: 20 ul with 2 ul buffer (stock 200 mM Tris, 500 mM Na glutamate, 100 mM MgCl2, 63.6 mM EDTA, 0.5% NP-40, 50% glycerol), 1 ug poly(dI-dC), 20 min room temperature, recombinant protein, residues 1-209, protein details: C-terminal His tag (pET29a(+)), probe letters rebuilt from the primers and the genome

| Sequence | binding result (0-0.9 ug protein) | binding result (0-0.6 ug protein) |
| --- | --- | --- |
| GCCAACATTGCCTATAAGAGACACTATATCGCCTGAATTCATAAAAACACCTCCACATAAGTTTATATAAATCTATTATGCAGAATTTTTAGGAAGTGTACTTTTATTTTCGAAAGCTAGTAGAAAAAATTAATATATGGTGTAAAAATTTACTTAAAAAAACAATATGTGTTATAATGTAAATATAAATAAATAGGACTAGAGGCGATTTATAATGTGAAGATAAAGTATGTTAGAAAAGCTAAACATTATTAAATTTAGGAAGGTGACTTTTATGTTAAAGGATGAAGTAATTAAACAAATTAGCACGCCATTAAC (double strand) [adc probe (EMSA)] | binds |  |
| GGCAAGCTCATCTAATGATACATCCCCCTTAAAGCTCTTAATTTTTTCAATTCTATCTAAGATTTCATTTTTAGGGAAAAAGGTCTCCTGCCCAGTAAAGCTGGATTTCTTTATGAACCATTCCTCAGGTATAAGTTTCTTTCTCTTCCATCTATACAGCTGACCATAAGAAATATGAGTTATCTCAAGAAGTTCTTTTTTAGAAATTAAATTAGTTTCATCCATATAGCTATTCCTCCAGTTATTCTCTTCATGAATACAATATAACATAACATTGTTACGTTTGCAATAGGAAAGTTTTATTTCACACAAAAAACAGCTAAAATATAAATTTAGCTTGTTTCGAACTATAGATAAGGAGTGTTAATATTTATATGAAAATATACATTATCTTAAAATTGATGTTATAATATAGAGCATATATTAACTATAATCCACTACATAAGTGTAATTTATTATATAAAGATAATATTGGAGGAAAAAGATTGTGTTTATTTTATTATTAAAATACATAAAACCCGTTGAGGAAGTTGATAAAG (double strand) [CAP0037 probe (CA_P0037-CA_P0036 promoter, EMSA)] |  | binds |

— PMC5050335
